{
  "source": "patent US20240192233A1",
  "about": "“DRUG DISCOVERY ASSAY TO SCREEN FOR COMPOUNDS” (FUNDACIÓ INSTITUT DE RECERCA BIOMÈDICA (IRB BARCELONA), priority 2021, published 2024)",
  "type_in_all_cases": "biochemical",
  "key": {"[1]": {"target": "T1, AR-NTD (Homo sapiens, UniProt P10275)", "T1 construct": "a domain of the androgen receptor localised at its N-terminus, amino acids 1-558", "T1 sequence (P10275 1-558)": "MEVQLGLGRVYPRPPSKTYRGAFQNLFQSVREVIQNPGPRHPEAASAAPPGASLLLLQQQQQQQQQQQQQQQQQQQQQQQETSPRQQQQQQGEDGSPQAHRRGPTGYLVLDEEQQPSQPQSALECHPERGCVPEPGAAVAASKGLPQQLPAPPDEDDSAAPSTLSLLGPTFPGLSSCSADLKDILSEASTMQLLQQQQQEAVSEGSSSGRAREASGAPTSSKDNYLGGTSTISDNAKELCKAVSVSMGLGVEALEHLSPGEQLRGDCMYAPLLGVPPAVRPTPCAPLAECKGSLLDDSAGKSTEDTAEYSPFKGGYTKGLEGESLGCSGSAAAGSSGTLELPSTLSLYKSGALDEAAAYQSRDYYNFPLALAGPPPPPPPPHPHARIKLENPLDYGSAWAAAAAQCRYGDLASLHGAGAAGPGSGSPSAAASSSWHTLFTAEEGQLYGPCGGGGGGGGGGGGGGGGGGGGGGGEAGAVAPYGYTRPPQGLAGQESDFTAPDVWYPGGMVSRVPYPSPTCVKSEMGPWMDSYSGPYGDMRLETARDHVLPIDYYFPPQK", "assay": "Confocal fluorescence microscopy imaging of AR-NTD condensation at increasing protein concentrations", "details": "presence of 75 μM EPI-001; 10% ficoll and 150 mM NaCl; without EPI-001 around 7.5 μM"}, "[2]": {"system": "Fused in Sarcoma (FUS) protein", "assay": "Confocal fluorescence microscopy imaging of FUS condensation at increasing protein concentrations", "details": "75 μM EPI-001; FUS-GFP, 150 mM KCl buffer"}, "[3]": {"target": "T1, AR-NTD", "assay": "Temperature-dependent turbidity shift assay (TSA), critical temperature Tc", "details": "500 mM NaCl", "description": "FIG. 6. a) Apparent absorbance (at λ=350 nm) measurement at increasing temperatures of 30 μM ARNTD in 20 mM Hepes 7.4, 500 mM NaCl, 2 mM TCEP buffer in the absence (grey) and presence of 5 eq of EPI-001 (red) or BADGE (green). Dashed lines indicate condensation onset and calculated Tc values are depicted in the insert. b) Tc obtained using the TSA assay of AR-NTD at different concentrations in 20 mM Hepes 7.4, 500 mM NaCl, 2 mM TCEP buffer in the absence (grey) and presence of 5 eq of EPI-001 (red) or BADGE (green). Mean values of 3 independent measurements and the standard deviation are plotted.\nTo quantify the effects of EPI-001 on the AR-NTD phase separation, we implemented a temperature-dependent turbidity shift assay (TSA). In this assay we measure the sample turbidity as a reporter of condensation and determine the temperature at which a given sample demixes, the Critical Temperature. When droplets are formed, they scatter light and cause an abrupt increase in turbidity. Therefore, values above 0 absorbance units (AU) in the TSA assay indicate condensation. We measure turbidity as the apparent absorbance at a wavelength in which the absorption of the other components in the sample is minimal, in our case 350 nm. Addition of 5 equivalents (eq) of EPI-001 to a 30 μM AR-NTD and 500 mM NaCl sample lowered the Tc of the AR-NTD by 10° C. (FIG. 5a). […]"}, "[4]": {"target": "T1, AR-NTD", "assay": "Screening with the condensation (TSA) assay, percentage of shift versus reference shift", "details": "screening concentration 100 μM; negative reference DMSO; mean of 3 measurements", "description": "FIG. 7. […] First two bars show data points corresponding to the controls that are used to calculate the activity: Negative reference (DMSO), Positive reference (EPI-001 at 200 μM). […] Mean values of 3 measurements and the standard deviation are plotted.\nIn this sense, in FIG. 7 the first two bars show data points corresponding to the controls that are used to calculate the activity: • Negative reference—DMSO • Positive reference—EPI-001 at 200 μM\nBriefly, in order to quantitatively rank the tested compounds with regards to their efficacy to enhance the AR-NTD condensation in vitro and compare it to that of EPI-001, we measured the cloud point temperature (Tc) of each of the samples at constant protein concentration (100 μM). Then, we calculated the percentage of shift caused by the compound in comparison to the reference shift, the one caused by 200 μM EPI-001. Next, we plotted the normalised shift versus the compound concentration."}, "[5]": {"target": "T1, AR-NTD", "assay": "Screening with the condensation assay, amplitude of the absorbance as parameter", "details": "screening concentration 100 μM; references DMSO and EPI-001 at 200 μM; mean of 3 measurements", "description": "FIG. 9. Results of screening for molecules using the condensation assay with amplitude of the absorbance as a parameter determining the activity of tested molecules. First two bars show data points corresponding to the controls that are used to calculate the activity: negative reference (DMSO), positive reference (EPI-001 at 200 μM). The rest of the bars corresponds to the activity of three screened molecules at a screening concentration 100 μM. […] Mean values of 3 measurements and the standard deviation are plotted.\nPlease note that, with reference to this aspect of the invention, the inventors have shown that this parameter could also be used to select hits (see FIG. 9)."}},
  "note": "At least one structure is not confirmed: it was looked up by name or label, or the drawing left a doubt.",
  "data": [
    {"smiles": "CC(C)(c1ccc(OCC(O)CO)cc1)c1ccc(OCC(O)CCl)cc1", "note": "(stereo not drawn) [EPI-001]", "values": [
      {"measurement": "AR-NTD concentration at which it demixed (formed droplets)", "setting": "[1]", "result": 2, "unit": "µM"},
      {"measurement": "influence on FUS ability to condensate", "setting": "[2]", "result": "did not influence"},
      {"measurement": "enhancement of AR-NTD condensation at all protein concentrations tested (left arm of phase diagram)", "setting": "[3]; 5 eq of compound, various AR-NTD concentrations", "result": "largely enhanced"},
      {"measurement": "lowering of the Tc of the AR-NTD", "setting": "[3]; 5 equivalents of compound, 30 μM AR-NTD, absorbance at 350 nm", "result": 10, "unit": "°C"},
      {"measurement": "hit classification by activity (percentage of Tc shift relative to 200 μM EPI-001), cut-off 25%", "setting": "[4]", "result": "hits"},
      {"measurement": "hit classification by activity based on amplitude of the absorbance, cut-off 25%", "setting": "[5]", "result": "hits"}
    ]}
  ]
}
